# Assay results: PubChem BioAssay AID540256 (National Center for Advancing Translational Sciences (NCATS), 2011)
# About 3,700 (1.2%) of roughly 300,000 compounds were called active. The inconclusive results got no clear call from the source; some entries with a clear call stand among them for comparison. Calls come from the whole dose curve; tested in HEK293 cells. Where the call is inconclusive, the potency comes from a doubtful curve fit.
# Assay: qHTS for Inhibitors of binding or entry into cells for Lassa Virus; note: nearly all actives have a fitted effect of over 50% in size
# Conditions: Lassa virus pseudotype entry inhibition, cell reporter; activity change, negative = inhibition: at 37.9 µM (top of the series) unless noted
# % is set by controls: 0 for no effect and ±100 for the full control effect; potency is the fitted concentration of half-maximal effect.
Structure (SMILES),Potency,"activity change, negative = inhibition"
N#Cc1c(Oc2ccc3ccccc3c2)sc(C(=O)c2ccccc2)c1N,"inconclusive: 3.16 µM [inhibitor, partial curve, poor fit]",–
CCn1c(CN2CCN(C(c3ccccc3)c3ccccc3)CC2)nc2c1c(=O)n(C)c(=O)n2C,"inconclusive: 12.6 µM [inhibitor, single point]",–
Cc1ccc2c(c1)C(c1ccccc1)N(C(=O)c1ccc(F)cc1)CC(=O)N2 (stereo not drawn),"inconclusive: 20 µM [inhibitor, partial curve, poor fit]",–
CC1CCCCC1NC(=O)c1cccc(S(=O)(=O)N2CCN(Cc3ccccc3)CC2)c1 (stereo not drawn),"inconclusive: 11.2 µM [inhibitor, partial curve, poor fit]",–
CCOc1ccc(-c2cc(CCCC(=O)NCCC(C)C)no2)cc1,–,inactive: -20.6% [at 46.1 µM]
N#CC1=C(N)OC2=C(C(=O)CC(c3ccccc3)C2)C1c1cccnc1 (stereo not drawn),"inconclusive: 1.03 µM [inhibitor, full curve, poor fit]",–
Cc1cccc(NC(=O)COc2coc(CN3CCN(c4ccccc4)CC3)cc2=O)c1C,"inconclusive: 5.01 µM [inhibitor, full curve]",–
O=C(NCCC1=CCCCC1)C1CCN(Cc2cnn(-c3ccccc3)c2-n2cccc2)CC1,"inconclusive: 35.5 µM [inhibitor, single point]",–
O=C(OCc1ccccc1F)c1cc2ccccc2cc1O,"inconclusive: 35.5 µM [inhibitor, partial curve, poor fit]",–
CC12CC3CC(C)(C1)CC(CN1CCOCC1)(C3)C2,"inconclusive: 14.1 µM [activator, single point]",–
CCN1CCN(c2nc(-c3ccccn3)nc3ccccc23)CC1,–,inactive: 0.0367%
COCCNC(=O)C(c1ccccc1C)N(C(=O)Cn1nnc2ccccc21)c1cccnc1 (stereo not drawn),"inconclusive: 0.231 µM [inhibitor, single point]",–
Cc1ccccc1CSCCNC(=O)c1ccc(Cl)c(S(=O)(=O)N2CCOCC2)c1,"inconclusive: 35.5 µM [inhibitor, single point]",–
Cc1oc2ccc(O)cc2c1C(=O)c1ccc(Br)cc1,"inconclusive: 0.891 µM [inhibitor, single point]",–
O=C(CCCn1c(=O)[nH]c2ccccc2c1=O)NCCSCc1ccccc1,–,inactive: -11.6%
CN(Cc1ccccc1)c1nc(N)c([N+](=O)[O-])c(NCc2ccccc2)n1,"inconclusive: 35.5 µM [inhibitor, single point]",–
Cc1nn(C(C)C(=O)N2CCc3ccccc32)c(C)c1[N+](=O)[O-] (stereo not drawn),–,inactive: 7.36%
CN(C)CCCN(C(=O)c1sc2ccccc2c1Cl)c1nc2ccc(F)cc2s1,"inconclusive: 11.6 µM [activator, partial curve, poor fit]",–
N#C/C(=C\c1ccc(F)cc1)C(=O)Nc1ccccn1,"inconclusive: 12.6 µM [activator, partial curve, poor fit]",–
COc1ccc(CCNC(=O)c2cc(-c3ccco3)nc3ccccc23)cc1,"inconclusive: 25.1 µM [inhibitor, single point]",–
COc1ccccc1N1CCN(C(=O)CCCCCn2c(=O)[nH]c3ccsc3c2=O)CC1,"inconclusive: 11.2 µM [inhibitor, single point]",–
CCN=C1SC(CC(=O)Nc2ccc(C(F)(F)F)cc2)C(=O)N1CC (stereo not drawn),"inconclusive: 2.06 µM [inhibitor, partial curve, poor fit]",–

Structure (SMILES),Potency,"activity change, negative = inhibition"
COc1cccc(OCc2nc3ccccc3n2C)c1,–,inactive: 31.8% [at 46.1 µM]
Oc1ccc2ccccc2c1C=Nc1ccccc1,"inconclusive: 35.5 µM [inhibitor, single point]",–
COC(=O)c1cc(C(=O)Nc2ccc(C)cn2)cc([N+](=O)[O-])c1,–,inactive: -28.9%
Cc1ccccc1NC(=O)CCN1C(=O)c2ccccc2C1=O,"inconclusive: 0.891 µM [inhibitor, single point]",–
Cc1nc2ccc(S(=O)(=O)N(CC(=O)Nc3cccc(C)c3C)Cc3ccccc3)cc2s1,–,inactive: 14.9% [at 46.1 µM]
O=C(Nc1cccc(Cl)c1)Nc1nnc(CSCCOc2ccc(Cl)cc2)s1,"inconclusive: 6.31 µM [inhibitor, single point]",–
Cc1ccc2nc(-c3ccccn3)cc(C(=O)Nc3ccc(S(=O)(=O)N4CCOCC4)cc3)c2c1,"inconclusive: 6.31 µM [inhibitor, partial curve, poor fit]",–
COc1ccc(NC(=O)CCSc2nc(C)cs2)cc1,"inconclusive: 0.631 µM [activator, full curve]",–
Cc1ccccc1NS(=O)(=O)c1ccc(C(=O)N2CCN(c3ccccc3O)CC2)cc1,"inconclusive: 35.5 µM [inhibitor, single point]",–
Cc1ccc2nc(N(CCN(C)C)C(=O)/C=C/c3cccs3)sc2c1,"inconclusive: 10 µM [inhibitor, partial curve, poor fit]",–
Cc1ccc(NC(=O)C2CCC(CNS(=O)(=O)c3cccc4nsnc34)CC2)c(C)c1 (stereo not drawn),–,inactive: -13.6% [at 46.1 µM]
NC(=S)N/N=C/c1ccc(-c2cc(Cl)cc(Cl)c2)o1,–,inactive: -28.6%
O=C(CN1C(=O)NC2(CCCCCC2)C1=O)c1cccs1,–,inactive: 13.1%
O=C1CCC(C(=O)N2CCCCO2)CN1CCc1ccc(Cl)cc1 (stereo not drawn),"inconclusive: 2.51 µM [activator, partial curve, poor fit]",–
O=C(CCC(=O)NC1CC1)Nc1nnc(C2CCCCC2)s1,"inconclusive: 0.103 µM [activator, full curve, poor fit]",–
COc1ccc(CCN(C)c2ccc(S(=O)(=O)N3CCCC3)cn2)cc1OC,–,inactive: -27.2%
Cn1c(=O)oc2cc(S(=O)(=O)NC3CCCCC3)ccc21,–,inactive: 17.3% [at 46.1 µM]
O=C(NNC1=Nc2ccccc2SC1)c1cccc([N+](=O)[O-])c1,"inconclusive: 12.6 µM [inhibitor, partial curve]",–
COC(=O)c1ccc2c(=O)n(CCCCCC(=O)O)c(=S)[nH]c2c1,"inconclusive: 18.4 µM [inhibitor, single point]",–
Cc1ccc(C)c(NC(=O)C2C3CCCC2C3c2ccccc2)c1 (stereo not drawn),–,inactive: -8.36%
COc1ccc(Oc2nccc(-c3ccccc3)c2C#N)cc1,"inconclusive: 6.31 µM [activator, single point]",–

# Arranged by count of non-hydrogen atoms (rising): part of the list above
Structure (SMILES),Potency,"activity change, negative = inhibition"
NC(=S)N/N=C/c1ccc(-c2cc(Cl)cc(Cl)c2)o1,–,inactive: -28.6%
O=C(NNC1=Nc2ccccc2SC1)c1cccc([N+](=O)[O-])c1,"inconclusive: 12.6 µM [inhibitor, partial curve]",–
Cc1ccc2nc(-c3ccccn3)cc(C(=O)Nc3ccc(S(=O)(=O)N4CCOCC4)cc3)c2c1,"inconclusive: 6.31 µM [inhibitor, partial curve, poor fit]",–
